Results from paper PMC5021333.
Results are given in words; binding and its absence hold for the method and conditions named. Binding seen in cells or lysates may run through a third protein. Some entries that bind do so weakly or less than the wild type. Where a sequence is shown, tags or fusion partners need not be part of it.

Target: Flag-tagged Hendra virus matrix protein (Hendra virus) (UniProt O89341)
Assay: co-IP

B1: Myc-IKKε (IκB kinase epsilon) (enzyme, UniProt Q14164 1-716)
chain: MQSTANYLWHTDDLLGQGATASVYKARNKKSGELVAVKVFNTTSYLRPREVQVREFEVLRKLNHQNIVKLFAVEETGGSRQKVLVMEYCSSGSLLSVLESPENAFGLPEDEFLVVLRCVVAGMNHLRENGIVHRDIKPGNIMRLVGEEGQSIYKLTDFGAARELDDDEKFVSVYGTEEYLHPDMYERAVLRKPQQKAFGVTVDLWSIGVTLYHAATGSLPFIPFGGPRRNKEIMYRITTEKPAGAIAGAQRRENGPLEWSYTLPITCQLSLGLQSQLVPILANILEVEQAKCWGFDQFFAETSDILQRVVVHVFSLSQAVLHHIYIHAHNTIAIFQEAVHKQTSVAPRHQEYLFEGHLCVLEPSVSAQHIAHTTASSPLTLFSTAIPKGLAFRDPALDVPKFVPKVDLQADYNTAKGVLGAGYQALRLARALLDGQELMFRGLHWVMEVLQATCRRTLEVARTSLLYLSSSLGTERFSSVAGTPEIQELKAAAELRSRLRTLAEVLSRCSQNITETQESLSSLNRELVKSRDQVHEDRSIQQIQCCLDKMNFIYKQFKKSRMRPGLGYNEEQIHKLDKVNFSHLAKRLLQVFQEECVQKYQASLVTHGKRMRVVHETRNHLRLVGCSVAACNTEAQGVQESLSKLLEELSHQLLQDRAKGAQASPPPIAPYPSPTRKDLLLHMQELCEGMKLLASDLLDNNRIIERLNRVPAPPDV
binding: binds
